Experimental data from the supplement of paper PMC4604168 (melanoma cell lines).
This is one part of the list. Many values rest on one well or one pass, so single values are uncertain.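 Cells were imaged in 1,536-well plates, and nuclei stained with an antibody against cleaved PARP were counted against all DNA-stained nuclei to give the apoptosis fraction. Screening doses were chosen to leave most cells alive, and resting and induced cleaved-PARP levels differ strongly between cell lines.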

Key:
Assay in all cases: cleaved PARP positive nuclei fraction relative to DMSO control; melanoma cells; higher = more apoptosis
Settings in all cases: library dose: low library concentration; 72 h
501Mel = tested on: 501Mel
A101D = tested on: A101D
A2058 = tested on: A2058
A375 = tested on: A375
C32 = tested on: C32
CBRC008 = tested on: CBRC008 (line from a melanoma biopsy)
CBRC013 = tested on: CBRC013 (line from a melanoma biopsy)
CBRC014 = tested on: CBRC014 (line from a melanoma biopsy)
CBRC016 = tested on: CBRC016 (line from a melanoma biopsy)
CBRC017 = tested on: CBRC017 (line from a melanoma biopsy)
COLO792 = tested on: COLO792
COLO800 = tested on: COLO800
COLO829 = tested on: COLO829
G361 = tested on: G361
IPC-298 = tested on: IPC-298
IST-MEL1 = tested on: IST-MEL1
LB2518-MEL = tested on: LB2518-MEL
LOXIMVI = tested on: LOXIMVI
MEL-HO = tested on: MEL-HO
CBRC034 = tested on: CBRC034 (line from a melanoma biopsy)

Row | SMILES | cleaved PARP positive nuclei fraction (501Mel) | cleaved PARP positive nuclei fraction (A101D) | cleaved PARP positive nuclei fraction (A2058) | cleaved PARP positive nuclei fraction (A375) | cleaved PARP positive nuclei fraction (C32) | cleaved PARP positive nuclei fraction (CBRC008) | cleaved PARP positive nuclei fraction (CBRC013) | cleaved PARP positive nuclei fraction (CBRC014) | cleaved PARP positive nuclei fraction (CBRC016) | cleaved PARP positive nuclei fraction (CBRC017) | cleaved PARP positive nuclei fraction (COLO792) | cleaved PARP positive nuclei fraction (COLO800) | cleaved PARP positive nuclei fraction (COLO829) | cleaved PARP positive nuclei fraction (G361) | cleaved PARP positive nuclei fraction (IPC-298) | cleaved PARP positive nuclei fraction (IST-MEL1) | cleaved PARP positive nuclei fraction (LB2518-MEL) | cleaved PARP positive nuclei fraction (LOXIMVI) | cleaved PARP positive nuclei fraction (MEL-HO) | cleaved PARP positive nuclei fraction (CBRC034)
1 | O=C(Nc1cc(C(F)(F)F)cc(C(F)(F)F)c1)c1cc(Cl)ccc1O + Cn1cncc1[C@@](N)(c1ccc(Cl)cc1)c1ccc2c(c1)c(-c1cccc(Cl)c1)cc(=O)n2C [tipifarnib] (first compound 0.016 µM, partner dose 0.01 µM) | 97.4% | 604% | 116% | 221% | 44.1% | 55.7% | 139% | 90.5% | 138% | 117% | 155% | 109% | 59.7% | 15.5% | 180% | 37% | 59.5% | 61.7% | 67.4% | –
2 | Cc1ccc(Nc2nccc(N(C)c3ccc4c(C)n(C)nc4c3)n2)cc1S(N)(=O)=O [Pazopanib] + Cn1c(Nc2ccc(C(F)(F)F)cc2)nc2cc(Oc3ccnc(-c4ncc(C(F)(F)F)[nH]4)c3)ccc21 [CHIR265] (first compound 0.4 µM, partner dose 0.08 µM) | 120% | 190% | 158% | 313% | 40.1% | 47.5% | – | 129% | 110% | 132% | 137% | 56.5% | 82.8% | 201% | 178% | 68.2% | 83.6% | 81.9% | 95.5% | 130%
3 | O=C(Nc1cc(C(F)(F)F)cc(C(F)(F)F)c1)c1cc(Cl)ccc1O + CC(C)(C)c1cnc(CSc2cnc(NC(=O)C3CCNCC3)s2)o1 [SNS-032] (first compound 0.016 µM, partner dose 0.01 µM) | 76% | 83.9% | 93.5% | 11.8% | 87.1% | 148% | 108% | 84.2% | 77.1% | 74.1% | 84% | 58.2% | 33.3% | 166% | 89.1% | 97.9% | 23.4% | 40% | 143% | –
4 | N#CC[C@H](C1CCCC1)n1cc(-c2ncnc3[nH]ccc23)cn1 [ruxolitinib] + Cc1ccc(Nc2nccc(N(C)c3ccc4c(C)n(C)nc4c3)n2)cc1S(N)(=O)=O [Pazopanib] (first compound 1 µM, partner dose 0.4 µM) | 68.9% | 92.9% | 85% | 83.3% | 79.9% | 145% | – | 117% | 103% | 207% | 140% | 55.6% | 121% | 187% | 140% | 91.8% | 92.3% | 49.7% | 96.5% | 86.5%
5 | CC[C@]1(O)C[C@H]2CN(CCc3c([nH]c4ccccc34)[C@@](C(=O)OC)(c3cc4c(cc3OC)N(C=O)[C@H]3[C@@](O)(C(=O)OC)[C@H](OC(C)=O)[C@]5(CC)C=CCN6CC[C@]43[C@@H]65)C2)C1 [vincristine] + CCCS(=O)(=O)Nc1ccc(F)c(C(=O)c2c[nH]c3ncc(Cl)cc23)c1F [PLX4720] (first compound 0.0001 µM, partner dose 0.08 µM) | 114% | 214% | 456% | 255% | 97.2% | 185% | – | 103% | 206% | 231% | 89.1% | 110% | 53.9% | 192% | 46.2% | 120% | 335% | 270% | 65% | 59.2%
6 | Cc1cn(-c2cc(NC(=O)c3ccc(C)c(Nc4nccc(-c5cccnc5)n4)c3)cc(C(F)(F)F)c2)cn1 [nilotinib] + Cn1nnc2c(C(N)=O)ncn2c1=O [temozolomide] (first compound 0.2 µM, partner dose 2 µM) | 107% | 371% | 140% | 177% | 74.2% | 65.4% | – | 114% | 100% | 177% | 115% | 92.3% | 148% | 189% | 46.2% | 32.9% | 50.4% | 251% | 76.4% | 82.1%
7 | CCCCCCCCCCCCCCCCCCOP(=O)([O-])OC1CC[N+](C)(C)CC1 [Perifosine] + NC1(c2ccc(-c3nc4ccn5c(=O)[nH]nc5c4cc3-c3ccccc3)cc2)CCC1 [MK2206] (first compound 0.4 µM, partner dose 0.4 µM) | 112% | 101% | 228% | 138% | 81.3% | 90.4% | – | 95.9% | 73.8% | 125% | 119% | 117% | 68% | 111% | 90.5% | 130% | 157% | 201% | 182% | 49%
8 | CC[C@]1(O)C[C@H]2CN(CCc3c([nH]c4ccccc34)[C@@](C(=O)OC)(c3cc4c(cc3OC)N(C=O)[C@H]3[C@@](O)(C(=O)OC)[C@H](OC(C)=O)[C@]5(CC)C=CCN6CC[C@]43[C@@H]65)C2)C1 [vincristine] + Cc1ccc(Nc2nccc(N(C)c3ccc4c(C)n(C)nc4c3)n2)cc1S(N)(=O)=O [Pazopanib] (first compound 0.0001 µM, partner dose 0.4 µM) | 90.2% | 147% | 299% | 263% | 81.3% | 290% | – | 113% | 92.6% | 87.8% | 97% | 41.3% | 60% | 85.7% | 65.1% | 58.8% | 115% | 66.4% | 130% | 268%
9 | O=c1[nH]nc(Sc2ncc([N+](=O)[O-])s2)n1-c1ccc2c(c1)OCCO2 + CO[C@H]1C[C@@H]2CC[C@@H](C)[C@@](O)(O2)C(=O)C(=O)N2CCCC[C@H]2C(=O)O[C@H]([C@H](C)C[C@@H]2CC[C@@H](OCCO)[C@H](OC)C2)CC(=O)[C@H](C)/C=C(\C)[C@@H](O)[C@@H](OC)C(=O)[C@H](C)C[C@H](C)/C=C/C=C/C=C/1C [everolimus] (first compound 0.2 µM, partner dose 0.02 µM) | 157% | 102% | 118% | 547% | 263% | 93% | – | 114% | 187% | 110% | 208% | 93.4% | 181% | 275% | 220% | 90.1% | 449% | 78.1% | 402% | 79%
10 | N#CC[C@H](C1CCCC1)n1cc(-c2ncnc3[nH]ccc23)cn1 [ruxolitinib] + OCc1c[nH]c2ccccc12 [Indole-3-carbinol] (first compound 1 µM, partner dose 0.8 µM) | 72.6% | 83.6% | 57.4% | 56.8% | 65.3% | 107% | – | 86.1% | 206% | 73.3% | 77.4% | 49.5% | 147% | 96.8% | 196% | 29.3% | 209% | 79.9% | 46.1% | 232%
11 | Cc1ccc(Nc2nccc(N(C)c3ccc4c(C)n(C)nc4c3)n2)cc1S(N)(=O)=O [Pazopanib] + CN(C)S(=O)(=O)c1ccc2c(c1)/C(=C/c1cc3c([nH]1)CCCC3)C(=O)N2 [SU6656] (first compound 0.4 µM, partner dose 0.4 µM) | 120% | 51.7% | 55.8% | 46.5% | 95.4% | 411% | 125% | 119% | 171% | 178% | 55.4% | 77.4% | 53.5% | 122% | 118% | 201% | 70.7% | 186% | 147% | –
12 | O=c1[nH]nc(Sc2ncc([N+](=O)[O-])s2)n1-c1ccc2c(c1)OCCO2 + O=C(CCCCCCC(=O)Nc1ccccc1)NO [vorinostat] (first compound 0.2 µM, partner dose 0.08 µM) | 51.4% | 99.5% | 106% | 90.5% | 88.6% | 54.9% | 104% | 81.2% | 110% | 88.1% | 119% | 95% | 108% | 31.2% | 83.7% | 91.1% | 89.9% | 86.3% | 170% | –
13 | N#CC[C@H](C1CCCC1)n1cc(-c2ncnc3[nH]ccc23)cn1 [ruxolitinib] + CNC(=O)c1cc(Oc2ccc(NC(=O)Nc3ccc(Cl)c(C(F)(F)F)c3)cc2)ccn1 [sorafenib] (first compound 1 µM, partner dose 0.4 µM) | 96% | 74.9% | 137% | 159% | 71% | 68.5% | – | 105% | 99.6% | 115% | 101% | 29% | 143% | 163% | 62.2% | 168% | 124% | 83.8% | 89.2% | 210%
14 | O=C(/C=C/c1cccnc1)NCCCCC1CCN(C(=O)c2ccccc2)CC1 + COCC[n+]1c2c(n(Cc3cnccn3)c1C)C(=O)c1ccccc1C2=O [YM155] (first compound 0.01 µM, partner dose 0.0004 µM) | 74.3% | 65.7% | 70.2% | 152% | 83.2% | 2790% | – | 99.8% | 928% | 698% | 394% | 272% | 155% | 3800% | 155% | 82.1% | 130% | 66% | 498% | 411%
15 | COc1cc([C@@H]2c3cc4c(cc3[C@@H](O[C@@H]3O[C@@H]5CO[C@@H](C)O[C@H]5[C@H](O)[C@H]3O)[C@H]3COC(=O)[C@H]23)OCO4)cc(OC)c1O [etoposide] + O=C(CCCCCCC(=O)Nc1ccccc1)NO [vorinostat] (first compound 0.02 µM, partner dose 0.08 µM) | 84.4% | 29.5% | 171% | 43.6% | 22.3% | 47.3% | 148% | 74.5% | 110% | 164% | 85.8% | 162% | 132% | 176% | 88.9% | 40.5% | 89.8% | – | 112% | –

In a second layout: results already given
Row,SMILES,cleaved PARP positive nuclei fraction (501Mel),cleaved PARP positive nuclei fraction (A101D),cleaved PARP positive nuclei fraction (A2058),cleaved PARP positive nuclei fraction (A375),cleaved PARP positive nuclei fraction (C32),cleaved PARP positive nuclei fraction (CBRC008),cleaved PARP positive nuclei fraction (CBRC013),cleaved PARP positive nuclei fraction (CBRC014),cleaved PARP positive nuclei fraction (CBRC016),cleaved PARP positive nuclei fraction (CBRC017),cleaved PARP positive nuclei fraction (COLO792),cleaved PARP positive nuclei fraction (COLO800),cleaved PARP positive nuclei fraction (COLO829),cleaved PARP positive nuclei fraction (G361),cleaved PARP positive nuclei fraction (IPC-298),cleaved PARP positive nuclei fraction (IST-MEL1),cleaved PARP positive nuclei fraction (LB2518-MEL),cleaved PARP positive nuclei fraction (LOXIMVI),cleaved PARP positive nuclei fraction (MEL-HO),cleaved PARP positive nuclei fraction (CBRC034)
4,"N#CC[C@H](C1CCCC1)n1cc(-c2ncnc3[nH]ccc23)cn1 [ruxolitinib] + Cc1ccc(Nc2nccc(N(C)c3ccc4c(C)n(C)nc4c3)n2)cc1S(N)(=O)=O [Pazopanib] (first compound 1 µM, partner dose 0.4 µM)",68.9%,92.9%,85%,83.3%,79.9%,145%,–,117%,103%,207%,140%,55.6%,121%,187%,140%,91.8%,92.3%,49.7%,96.5%,86.5%
5,"CC[C@]1(O)C[C@H]2CN(CCc3c([nH]c4ccccc34)[C@@](C(=O)OC)(c3cc4c(cc3OC)N(C=O)[C@H]3[C@@](O)(C(=O)OC)[C@H](OC(C)=O)[C@]5(CC)C=CCN6CC[C@]43[C@@H]65)C2)C1 [vincristine] + CCCS(=O)(=O)Nc1ccc(F)c(C(=O)c2c[nH]c3ncc(Cl)cc23)c1F [PLX4720] (first compound 0.0001 µM, partner dose 0.08 µM)",114%,214%,456%,255%,97.2%,185%,–,103%,206%,231%,89.1%,110%,53.9%,192%,46.2%,120%,335%,270%,65%,59.2%
